From PubChem BioAssay AID493014 (National Center for Advancing Translational Sciences (NCATS), 2011)
The list shows a part of the results. Shown are side measurements of this screen, not its main read-out; they come without a call. The list favours compounds with an active or inconclusive main result. Potencies come from curve fits of mixed quality, noted in brackets.

Experiment: qHTS Assay to Find Inhibitors of Chronic Active B-Cell Receptor Signaling
Settings: ABC-DLBCL IkBa-CBG/CBR reporter, luminescence ratio (green luciferase fused to IkBa over red control in TMD8 lymphoma cells), 4 h
Procedure, shortened: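 Concentration-response series (up to 46 uM) were applied to TMD8 dual-reporter cells for 4 h at 37C with doxycycline. Green/red ratio, after filter-overlap correction, defined %Activity; red signal alone was normalised to basal cells and zero luminescence.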

[1] = measured here: CBR red luminescence, cell number
[2] = measured here: IkBa-CBG green luminescence

| Structure (SMILES) | AC50 [1] | AC50 [2] |
| --- | --- | --- |
| O=C(COC(=O)c1cc(S(=O)(=O)N2CCOCC2)ccc1F)Nc1ccc(Cl)cn1 | 29.1 µM [falling, partial curve, poor fit] | – |
| O=C(O)c1cccc(N/N=C/c2ccc(OC(F)(F)F)cc2)c1 | 20 µM [falling, partial curve, poor fit] | – |
| CCOC(=O)c1sc(NC(=O)c2ccc(Cl)s2)cc1C | 0.058 µM [falling, full curve] | – |
| COc1ccc(/C(O)=C2/C(=O)C(=O)N(CCCC(=O)O)C2c2ccc(OC)c(OC)c2)cc1 (stereo not drawn) | 8.91 µM [falling, partial curve, poor fit] | – |
| Nc1nc(SCC(=O)N2CCN(c3ccc(F)cc3)CC2)n[nH]1 | 29.1 µM [rising, single point] | 20.6 µM [falling, partial curve, poor fit] |
| CC1=Nc2ccc(C)cc2/C1=C/c1c(N)n2oc(C)cc2nc1=O | 3.16 µM [falling, full curve] | – |
| Oc1cc2ccccc2cc1-c1n[nH]c(=S)o1 | 22.4 µM [falling, single point] | – |
| Cc1nn(-c2ccccc2)c(C)c1C(=O)OCC(=O)N1CC(=O)Nc2ccccc21 | 20 µM [falling, single point] | – |
| CCCCCCC[C@@H](C/C=C/CCC(=O)N(C)C/C(=C/Cl)C/C(=C\C(=O)N1C[C@H](O)CC1=O)OC)OC | 18.4 µM [falling, single point] | – |
| CC(=O)C(C)Oc1ccc2c3c(c(=O)oc2c1)CCCC3 (stereo not drawn) | 6.31 µM [rising, partial curve, poor fit] | – |
| O=C(Nc1ccccc1C(=O)N/N=C/c1ccncc1)c1ccccc1 | 7.08 µM [falling, partial curve] | – |
| CC(=O)c1cccc(NS(=O)(=O)c2ccc(N/C=C/C(=O)c3ccc(F)cc3)cc2)c1 | 11.6 µM [falling, partial curve, poor fit] | – |
| O=C(O)c1ccc2c(c1)C(=O)N(c1cccc(-c3nc4ccccc4s3)c1)C2=O | 8.91 µM [rising, partial curve] | – |
| Cc1ccc(OCc2cc(C(=O)N(C)CCc3nc4ccccc4[nH]3)no2)cc1C | 11.2 µM [falling, partial curve, poor fit] | – |
| O=C(Nc1c(F)cccc1F)c1ccc(-n2cncn2)nc1 | 11.2 µM [falling, partial curve] | – |
| O=C(N/N=C/C1=Cc2ccccc2OC1)c1ccncc1 | 10 µM [falling, partial curve] | – |
| O=c1[nH]cnc2scc(C3COc4ccccc4O3)c12 (stereo not drawn) | 28.2 µM [falling, partial curve, poor fit] | – |
| CCOC(=O)N1CCN(C(=O)c2ccccc2N(Cc2ccccc2)S(=O)(=O)c2ccc(OC)cc2)CC1 | – | 22.4 µM [falling, single point] |
| CCOc1ccc2nc(NC(=O)CN3CCC(n4nnc5cc(F)ccc54)CC3)sc2c1 | 29.1 µM [falling, single point] | – |
| O=C(Nc1ccc(S(=O)(=O)Nc2nccs2)cc1)c1cc(-c2ccccc2)nc2ccccc12 | 13 µM [falling, partial curve] | 20.6 µM [rising, partial curve] |
| COc1cccc(C(=O)Nc2c3c(nn2-c2ccc(Cl)cc2)CS(=O)(=O)C3)c1 | 12.6 µM [falling, single point] | – |

Sorted by molar mass (ascending): some entries from above

| Structure (SMILES) | AC50 [1] | AC50 [2] |
| --- | --- | --- |
| CCOC(=O)c1sc(NC(=O)c2ccc(Cl)s2)cc1C | 0.058 µM [falling, full curve] | – |
| O=C(Nc1ccccc1C(=O)N/N=C/c1ccncc1)c1ccccc1 | 7.08 µM [falling, partial curve] | – |
| Cc1ccc(OCc2cc(C(=O)N(C)CCc3nc4ccccc4[nH]3)no2)cc1C | 11.2 µM [falling, partial curve, poor fit] | – |

Carrying on.

| Structure (SMILES) | AC50 [1] | AC50 [2] |
| --- | --- | --- |
| N=c1c2c(n(Cc3ccc(Cl)cc3)c3c1CCC3)CCC2 | 10 µM [falling, partial curve, poor fit] | – |
| Nc1nc(Nc2ccccc2F)nc(NCc2ccccc2)c1[N+](=O)[O-] | 31.6 µM [rising, partial curve, poor fit] | – |
| O=S(=O)(Nc1ccncc1Cl)c1ccccc1 | 29.1 µM [falling, single point] | – |
| COc1ccc(-c2csc(N(CCCN(C)C)C(=O)c3ccc(C(C)(C)C)cc3)n2)cc1 | 12.6 µM [falling, single point] | – |
| O=C(CSc1ccc2ccccc2n1)NC1CC1 | 25.9 µM [rising, partial curve, poor fit] | – |
| COc1ccc(C2=NOC(Cn3nc(-c4ccccc4)cc3C(=O)NCc3cccs3)C2)cc1 (stereo not drawn) | 6.51 µM [rising, partial curve, poor fit] | – |
| C=C1c2ccccc2S(=O)(=O)N(Cc2ccccc2)C1COCc1ccccc1 (stereo not drawn) | 20 µM [falling, partial curve, poor fit] | – |
| Cc1cc(Br)ccc1OCC(=O)NNC(=O)C(=O)Nc1ccccc1 | 35.5 µM [falling, single point] | – |
| Cc1ccc(CNC(=O)CSc2nc3n[nH]c(C)c3c(=N)n2-c2cccc(C)c2)cc1 | 6.31 µM [falling, partial curve, poor fit] | – |
| c1cc2nnnn2nc1N1CCCCCC1 | 29.1 µM [rising, single point] | – |
| COc1ccc(CCNC(=O)c2cccc(Br)c2)cc1OC | 17.8 µM [falling, partial curve, poor fit] | – |
| C/C(N=Nc1nc2ccccc2s1)=N\Nc1ccccc1O | 20 µM [rising, single point] | – |
| COc1ccc(C(=O)NCC(=O)OCn2nnc3ccccc3c2=O)cc1OC | 35.5 µM [falling, partial curve, poor fit] | – |
| COc1ccc(N(CC(=O)N2CCN(c3ccc(F)cc3)CC2)S(=O)(=O)c2c(C)n[nH]c2C)cc1 | 0.112 µM [falling, full curve, poor fit] | – |
| COc1cc(NC(=S)NC(=O)c2ccc(C)cc2C)ccc1NC(=O)c1cccs1 | 1.46 µM [rising, partial curve, poor fit] | – |
| Cc1csc(=O)n1CC(=O)OCC(=O)Nc1ccc(F)c(F)c1 | 9.2 µM [rising, partial curve] | – |
| Cc1ccc(C)c(-n2c(-c3csc(C)c3)n[nH]c2=S)c1 | 29.1 µM [falling, single point] | – |
| O=C(NCC1CCCO1)C1CCCN(S(=O)(=O)c2ccc(Cl)cc2)C1 (stereo not drawn) | 35.5 µM [falling, single point] | – |
| N/C(=N\OC(=O)Nc1ccccc1)c1ncc([N+](=O)[O-])s1 | 1.41 µM [rising, partial curve, poor fit] | – |
| O=C(Nc1nc(=O)c2ccccc2s1)c1ccc(Cl)cc1 | 0.259 µM [falling, full curve] | – |
| COc1ccc(-n2cc(CNCCc3nc(C)cc(C)n3)c(-c3ccccc3Cl)n2)cc1 | 3.55 µM [falling, partial curve, poor fit] | – |

2 of the compounds above, field by field:
Cc1csc(=O)n1CC(=O)OCC(=O)Nc1ccc(F)c(F)c1
  AC50 [1]: 9.2 µM [rising, partial curve]
Cc1ccc(C)c(-n2c(-c3csc(C)c3)n[nH]c2=S)c1
  AC50 [1]: 29.1 µM [falling, single point]

Remaining list, next part.

| Structure (SMILES) | AC50 [1] | AC50 [2] |
| --- | --- | --- |
| COc1ccc2[nH]c3c(=O)n(CCCCC(=O)N4CCC(C(N)=O)CC4)c(=S)[nH]c3c2c1 | 10 µM [falling, partial curve, poor fit] | – |
| COc1ccc2nc(NC(=O)c3ccccc3-c3ccccc3C(=O)O)sc2c1 | 6.31 µM [falling, full curve] | – |
| O=C(Nc1ccc(Oc2ccsc2C(=O)O)cc1)c1ccccc1 | 14.1 µM [falling, partial curve, poor fit] | – |
| CCOC(=O)c1cnc2ccc(OC)cc2c1Nc1ccc2c(c1)OCCO2 | 20 µM [falling, single point] | – |
| O=C(N/N=C/c1cccs1)c1n[nH]c2c1CCC2 | 8.2 µM [falling, partial curve] | – |
| COc1ccccc1NC(=O)/C=C1\NC(=O)CS1 | 0.316 µM [falling, full curve, poor fit] | – |
| CC(N)(C(=O)O)c1cccc(OCc2cccc(Cl)c2)c1 (stereo not drawn) | 11.2 µM [rising, partial curve, poor fit] | – |
| CC(C)C[C@H](NC(=O)c1nc[nH]c1C(=O)NCCCCCNC(=O)OC(C)(C)C)C(=O)OCc1ccccc1 | 17.8 µM [falling, single point] | – |
| CC(=O)C1=C(C)NC(=O)CC1c1ccc(F)cc1 (stereo not drawn) | 14.1 µM [rising, single point] | – |
| Cc1nnc(SCc2cc(=O)[nH]c(=S)[nH]2)s1 | 0.794 µM [rising, full curve, poor fit] | – |
| COc1cc(/C=C(\C#N)C(=O)Nc2cccc3ncccc23)cc(OC)c1OC | 23.1 µM [falling, partial curve, poor fit] | – |
| COc1cc(C2C(C(=O)OC(C)C)=C(C)Nc3ncnn32)cc(OC)c1OC (stereo not drawn) | 6.51 µM [rising, single point] | – |
| CC(C)[C@H](NC(=O)[C@@H]1CSCN1C(=O)OC(C)(C)C)C(=O)NCC1CCC(C(=O)O)CC1 (stereo partly drawn) | 0.82 µM [rising, partial curve, poor fit] | – |
| CN(C)C(=O)COc1ccc(S(=O)(=O)c2ccc(OCC(=O)N(C)C)cc2)cc1 | 14.1 µM [rising, single point] | – |
| O=C(c1cccs1)n1nc(NCc2ccccc2)nc1NCc1ccccc1 | – | 16.4 µM [rising, partial curve, poor fit] |
| S=C(NCCCN1CCOCC1)Nc1ccc(-c2nc3ccccc3[nH]2)cc1 | 20 µM [falling, single point] | – |
| CC(Sc1nc2ccccc2[nH]1)C(=O)Nc1ccc2c(c1)OCCO2 (stereo not drawn) | 12.6 µM [falling, partial curve, poor fit] | – |
| CNS(=O)(=O)c1cc(-c2nnc(Nc3ccc(NC(C)=O)cc3)c3ccccc23)ccc1C | 7.94 µM [falling, partial curve, poor fit] | – |
| O=C1N=c2ccccc2=C1c1sc(=S)n(NC(=O)c2ccccc2)c1O | 1.58 µM [falling, partial curve, poor fit] | – |
